Experimental data from PubChem BioAssay AID504467 (National Center for Advancing Translational Sciences (NCATS), 2011).
The campaign covered roughly 330,000 compounds. About 7,700 (2.3%) were called active. The shares of active, inactive and inconclusive entries below differ from those in the screen. Calls come from the whole dose curve; as a rule, active = well fitted inhibition curve with a large enough effect; inconclusive = small, poorly fitted or top-dose-only effect, or effect the other way; inactive = flat fitted curve, though single readings scatter. A potency beside an inconclusive call is a rough fit, not a confirmed value.

test: qHTS screen for small molecules that inhibit ELG1-dependent DNA repair in human embryonic kidney (HEK293T) cells expressing luciferase-tagged ELG1; details: HEK293T ELG1-luciferase reporter, luminescence, 16 h, DNA damage induced by 5-fluorouridine; series mostly up to 46.1 µM; note: nearly all actives have a fitted effect of over 55% in size
Procedure, shortened: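 Reporter activity after DNA damage by 5-fluorouridine is monitored. Compound-treated cells incubate 16 hr at 37 °C, then ONE-Glo is added for 30 min before luminescence reading.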
Potency is the fitted concentration of half-maximal effect.

| SMILES | Potency |
| --- | --- |
| COc1cc(C(=O)ON=C2C(C)=CC(=O)C=C2C)cc(OC)c1OC | inconclusive: 0.651 µM [activator, partial curve, poor fit] |
| O=C(c1ccccc1-c1ccccc1)N1CCN(c2ccccn2)CC1 | inactive |
| Cc1cccc(NC(=O)C2C3C=CC(O3)C2C(=O)O)c1C (stereo not drawn) | inactive |
| Cc1ccc(OC(=O)c2cc(C)nn2C(C)(C)C)cc1 | inactive |
| COc1ccc(NC(=O)c2c3c(nc4ccccc24)CCN(Cc2ccccc2)C3)c(OC)c1 | inconclusive: 20.6 µM [inhibitor, single point] |
| C(=N\N1CCOCC1)/c1cn(-c2ccccc2)nc1-c1ccccc1 | inactive |
| CCOC(=O)C1CCCN(C(=O)c2cc(COc3ccc(C)nc3)on2)C1 (stereo not drawn) | inconclusive: 29.1 µM [activator, single point] |
| CCCCc1n(CC(=O)c2ccc(Cl)cc2)c2ccccc2[n+]1C | inconclusive: 20.6 µM [inhibitor, single point] |
| O=C1NC(=O)/C(=C/c2ccc(-c3cc(C(=O)O)ccc3Cl)o2)S1 | inactive |
| c1ccc(COc2ccc(OCCCN3CCCC3)cc2)cc1 | inconclusive: 2.06 µM [activator, partial curve] |
| Cc1oc(-c2ccc(Cl)cc2)nc1CS(=O)CC(=O)NCCCN1CC(C)CC(C)C1 (stereo not drawn) | inactive |
| CCCCn1c(SCC(=O)N2CC(C)CC(C)C2)nc2cc(S(N)(=O)=O)ccc21 (stereo not drawn) | inconclusive: 23.1 µM [inhibitor, single point] |
| COc1ccc(C(=O)O/N=C(\C)c2ccccc2)cc1 | inactive |
| O=C(CSc1nc2ccccc2o1)Nc1nc(-c2ccccc2)c(-c2ccccc2)s1 | inconclusive: 7.31 µM [inhibitor, partial curve, poor fit] |
| CC1(C)CC2CC(C)(CN2C(=O)COC(=O)c2cccnc2Cl)C1 (stereo not drawn) | inconclusive: 20.6 µM [activator, single point] |
| CCN(CC)CCNCC1C(=O)O[C@@H]2C[C@@]3(C)CCC[C@H](C)C3=C[C@H]12 (stereo partly drawn) | inconclusive: 29.1 µM [activator, single point] |
| COc1ccc(C(CNC(=O)c2cc3ccccc3cc2O)N2CCOCC2)cc1 (stereo not drawn) | inconclusive: 25.9 µM [inhibitor, single point] |
| Cc1nc(NCCCN2CCOCC2)c2oc3ccccc3c2n1 | inactive |
| Cc1ccc(-c2nnc(Nc3ccc4c(c3)OCO4)c3ccccc23)cc1S(=O)(=O)NC(C)C | active: 14.6 µM |
| Cc1nnc(SCC(=O)N2c3ccccc3Sc3ccccc32)n1N | inactive |
| COc1cc(/C=N/NC(=O)c2ccc3c(c2)OCCO3)c(Br)c(Br)c1O | inconclusive: 20.6 µM [activator, single point] |
| CCC(C(=O)OCC(=O)N(CCOC)c1c(N)n(Cc2ccccc2)c(=O)[nH]c1=O)c1ccccc1 (stereo not drawn) | inactive |
| Cn1ccs/c1=N\C(=O)Nc1ccccc1 | inconclusive: 18.3 µM [activator, partial curve] |

Among those listed so far, these have nitrogen in an aromatic ring.

| SMILES | Potency |
| --- | --- |
| O=C(c1ccccc1-c1ccccc1)N1CCN(c2ccccn2)CC1 | inactive |
| Cc1ccc(OC(=O)c2cc(C)nn2C(C)(C)C)cc1 | inactive |
| COc1ccc(NC(=O)c2c3c(nc4ccccc24)CCN(Cc2ccccc2)C3)c(OC)c1 | inconclusive: 20.6 µM [inhibitor, single point] |
| C(=N\N1CCOCC1)/c1cn(-c2ccccc2)nc1-c1ccccc1 | inactive |
| CCOC(=O)C1CCCN(C(=O)c2cc(COc3ccc(C)nc3)on2)C1 (stereo not drawn) | inconclusive: 29.1 µM [activator, single point] |
| CCCCc1n(CC(=O)c2ccc(Cl)cc2)c2ccccc2[n+]1C | inconclusive: 20.6 µM [inhibitor, single point] |
| Cc1oc(-c2ccc(Cl)cc2)nc1CS(=O)CC(=O)NCCCN1CC(C)CC(C)C1 (stereo not drawn) | inactive |
| CCCCn1c(SCC(=O)N2CC(C)CC(C)C2)nc2cc(S(N)(=O)=O)ccc21 (stereo not drawn) | inconclusive: 23.1 µM [inhibitor, single point] |
| O=C(CSc1nc2ccccc2o1)Nc1nc(-c2ccccc2)c(-c2ccccc2)s1 | inconclusive: 7.31 µM [inhibitor, partial curve, poor fit] |
| CC1(C)CC2CC(C)(CN2C(=O)COC(=O)c2cccnc2Cl)C1 (stereo not drawn) | inconclusive: 20.6 µM [activator, single point] |
| Cc1nc(NCCCN2CCOCC2)c2oc3ccccc3c2n1 | inactive |
| Cc1ccc(-c2nnc(Nc3ccc4c(c3)OCO4)c3ccccc23)cc1S(=O)(=O)NC(C)C | active: 14.6 µM |
| Cc1nnc(SCC(=O)N2c3ccccc3Sc3ccccc32)n1N | inactive |
| CCC(C(=O)OCC(=O)N(CCOC)c1c(N)n(Cc2ccccc2)c(=O)[nH]c1=O)c1ccccc1 (stereo not drawn) | inactive |
| Cn1ccs/c1=N\C(=O)Nc1ccccc1 | inconclusive: 18.3 µM [activator, partial curve] |

Further records follow.

| SMILES | Potency |
| --- | --- |
| O=C(Nc1ccccc1C(F)(F)F)c1ccc(CN2CCC(Cc3ccccc3)CC2)cc1 | inconclusive: 25.9 µM [inhibitor, partial curve, poor fit] |
| Cc1cc(/C=C(\C#N)C(=O)Nc2ccccc2)c(C)n1-c1ccc2c(c1)OCO2 | inconclusive: 29.1 µM [inhibitor, single point] |
| CCOC(=O)N1CC=C2C(C#N)=C(N)C(C#N)(C#N)[C@H](c3ccc(OCC)c(OCC)c3)[C@H]2C1 | inconclusive: 5.17 µM [inhibitor, full curve] |
| CCN1C(=O)/C(=C/c2cnn(CC)c2C)SC1=S | inconclusive: 20.6 µM [activator, partial curve] |
| O=C(NC1=NN(c2ccccc2)CC1)Nc1ccccc1F | inconclusive: 16.4 µM [activator, partial curve] |
| CCOC(=O)c1cc2c(=O)n3cccc(C)c3nc2n(CCCOC)c1=NC(=O)c1cccnc1 | inactive |
| C/C(=N\NC(=O)c1cc(O)ccc1O)c1cccc(NC(=O)c2ccc(Cl)cc2)c1 | inconclusive: 10.3 µM [activator, partial curve] |
| CN(C)S(=O)(=O)c1ccc(C(=O)OCC(=O)c2csc(N3CCCCC3)n2)cc1 | inconclusive: 20.6 µM [activator, single point] |
| COc1cc(NC(=S)NCCN2CCOCC2)cc(OC)c1OC | inactive |
| O=S(=O)(c1ccc2c(c1)OCCO2)N1CCc2ccccc21 | inconclusive: 23.1 µM [inhibitor, partial curve, poor fit] |
| COc1cc(/C=C(/C(=O)c2cccs2)c2nc3ccccc3[nH]2)cc(OC)c1O | inconclusive: 23.1 µM [inhibitor, single point] |
| Cc1nc(N2CCN(C)CC2)c2sc(=S)n(-c3ccccc3)c2n1 | inconclusive: 29.1 µM [activator, partial curve, poor fit] |
| O=C(NC1CCCc2ccccc21)C1CCN(S(=O)(=O)c2cccc3nsnc23)CC1 (stereo not drawn) | inconclusive: 16.4 µM [inhibitor, partial curve] |
| O=C1C=C(c2ccc(C(=O)O)cc2)C[C@@H](c2ccc(F)cc2)C1 | inconclusive: 16.4 µM [activator, partial curve] |
| CCCCCCn1c(SCCN2CCOCC2)nc2c1c(=O)[nH]c(=O)n2C | inconclusive: 14.6 µM [activator, partial curve, poor fit] |
| CCN1CCN(C(c2cccs2)C(C)NC(=O)c2cccc(OC)c2)CC1 (stereo not drawn) | inconclusive: 16.4 µM [activator, single point] |
| COc1cc(-c2nc3ccccn3c2/N=C/c2cccc(OC)c2O)ccc1O | inactive |
| COc1ccc(OC)c(NC(=O)COC(=O)c2ccc(OC)c(S(=O)(=O)N3CCCC3)c2)c1 | inconclusive: 4.11 µM [inhibitor, single point] |
| COc1cccc(CNC(=O)Cc2ccc(NC(=O)C3=C(C)OCCS3)cc2)c1 | inconclusive: 4.11 µM [activator, full curve] |
| N/C(=N\OC(=O)c1ccco1)c1ccccn1 | inconclusive: 20.6 µM [activator, partial curve] |
| Cc1ccc(Oc2ccc(NC(=O)CCC(=O)OCC(=O)c3cccs3)cc2)cc1C | inconclusive: 29.1 µM [activator, single point] |
| Cc1nn(C)c(Oc2cccc(C(F)(F)F)c2)c1C#N | inactive |
| c1ccc(C2CCCN(Cc3nc(CC4CC4)no3)CC2)cc1 (stereo not drawn) | inconclusive: 20.6 µM [activator, single point] |

| SMILES | Potency |
| --- | --- |
| Cc1cc(COc2ccccc2)oc1C(=O)O | inconclusive: 35.5 µM [inhibitor, single point] |
| CCOC(=O)c1c(C)oc2c1c(C=NCc1ccccn1)c(O)c1ccccc12 | active: 18.4 µM |
| Cc1noc(C)c1CSc1ncnc2ccccc12 | inconclusive: 20.6 µM [activator, partial curve] |
| O=C1c2cccc([N+](=O)[O-])c2C(=O)N1c1ccccc1 | inconclusive: 29.1 µM [activator, partial curve, poor fit] |
| Cc1oc2cc3oc(=O)c4c(c3cc2c1C)CCC4 | inconclusive: 7.31 µM [activator, partial curve] |
| COc1cccc(/C=C2\CCc3ccccc3C2=O)c1 | inconclusive: 3.66 µM [activator, full curve] |
| CCCOc1ccc(C(=O)CCC(=O)OCC(=O)N(C)c2c(N)n(Cc3ccccc3)c(=O)[nH]c2=O)cc1 | inconclusive: 32.6 µM [activator, partial curve, poor fit] |
| CCCCCn1c(SCC#N)nc2cc(C(=O)NCC3CCCO3)ccc2c1=O (stereo not drawn) | inconclusive: 29.1 µM [inhibitor, single point] |
| CCC(C)(C(=O)NC1CCCC1)N(Cc1ccco1)C(=O)c1ccc2c(c1)OCO2 (stereo not drawn) | inactive |
| CCOC(=O)COc1cccc2c(=O)n(CC(=O)N3CCC(C)CC3)ccc12 | inactive |
| Cc1ccccc1N1C(=O)c2ccccc2N2C(=O)c3ccccc3C12 (stereo not drawn) | inconclusive: 20.6 µM [inhibitor, partial curve] |
| Cc1cc([N+](=O)[O-])nn1CCCC(=O)Nc1cccc(Cl)c1Cl | inactive |
| COc1ccccc1NS(=O)(=O)c1ccc2nc(CCl)[nH]c2c1 | inconclusive: 7.3 µM [inhibitor, partial curve] |
| O=C(Cn1nc(Cc2cccnc2)c2ccccc2c1=O)Nc1cc(F)ccc1F | inconclusive: 29.1 µM [inhibitor, single point] |
| Cc1ccc(C(=O)Nc2nc(N)n(-c3ccccc3)n2)cc1 | inconclusive: 18.3 µM [activator, single point] |
| O=C(Nc1ccc(Br)c2ccccc12)c1ccc2ccccc2c1O | inconclusive: 3.66 µM [inhibitor, single point] |
| CN(C(=O)c1ccc(-c2nn(C)c(=O)c3ccccc23)cc1)C1CCCCC1 | inconclusive: 23.1 µM [inhibitor, single point] |
| O=C(COc1ccc(F)cc1)N1CCC(c2ccccc2)C1 (stereo not drawn) | inconclusive: 16.4 µM [activator, partial curve] |
| CCOc1ccc(N2CC(C(=O)NCc3ccccn3)CC2=O)cc1 (stereo not drawn) | inconclusive: 0.073 µM [inhibitor, full curve, poor fit] |
| CC(C)C(=O)NN(C(=O)C(C)C)c1nc2ccccc2s1 | inactive |
| C[C@H](CO)N1C[C@H](C)[C@@H](CN(C)C)Oc2c(NC(=O)Cc3ccccc3)cccc2C1=O | inactive |
| Cc1cc(OCC(=O)Nc2sc3c(c2C#N)CC(C)(C)NC3(C)C)c(C(C)C)cc1Cl | inactive |
